Source: the supplement of paper PMC12067093, “Discovery and optimisation of a covalent ligand for TRIM25 and its application to targeted protein ubiquitination” (Chemical Science, 2025)
The other results are listed elsewhere or left out.

Compound: CC1Cc2ccccc2N1C(=O)C1CCCN(C1)C(=O)CCl (mixture of isomers) [TRIM25 ligand 11 (diastereomer mixture)]
Test: probe-labelled cysteine peptide fold change vs DMSO (competition) (log2 fold change); higher = less target engagement (more negative = stronger competition)
Settings: THP-1, incubation time: 4 h
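Further: competitive chemoproteomic profiling in live THP-1 cells with an iodoacetamide desthiobiotin (IA-DTB) probe, comparing probe-labelled peptide intensities in compound-treated cells against DMSO-treated controls.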

Row | Target | probe-labelled cysteine peptide fold change (10 µM) | probe-labelled cysteine peptide fold change (50 µM)
1 | MZF1_P28698_323_SEQDPTDEDPCR (UniProt P28698) | 0.15 | 0.0048
2 | NAA15_Q9BXJ9_529_HFIEITDDQFDFHTYCMR (UniProt Q9BXJ9) | -0.0244 | 0.00122
3 | MYO9B_Q13459_1169_HIQSCK (UniProt Q13459) | -0.0237 | -0.105
4 | NAA15_Q9BXJ9_817_NLQTCMEVLEALYDGSLGDCK (UniProt Q9BXJ9) | -0.0826 | -0.0271
5 | N4BP2_Q86UW6_1561_DHNYSLEHTVQFLNCVLEGDPVK (UniProt Q86UW6) | -0.117 | -0.208
6 | NAA38_Q9BRA0_17_EENGCCSR (UniProt Q9BRA0) | -0.0185 | -0.193
7 | NAPA_P54920_212_AALCHFCIDMLNAK (UniProt P54920) | 0.11 | 0.136
8 | NCAPD2_Q15021_421_SVLVCK (UniProt Q15021) | -0.0768 | 0.17
9 | MYO1F_O00160_788_CVYVIGR (UniProt O00160) | -0.13 | -0.058
10 | NAGK_Q9UJ70_268_IGLPILCVGSVWK (UniProt Q9UJ70) | 0.0341 | 0.253
11 | MYO18A_Q92614_1164_SSCCMGLSR (UniProt Q92614) | 0.0273 | 0.0555
12 | NAPA_P54920_42_IEEACEIYAR (UniProt P54920) | -0.091 | -0.0305
13 | NAA35_Q5VZE5_409_CYLYNNHQAK (UniProt Q5VZE5) | 0.05 | 0.0305
14 | MYO9A_B2RTY4_1973_TSDCTATK (UniProt B2RTY4) | -0.00813 | -0.134
15 | MYOF_Q9NZM1_409_KVCTNIIEK (UniProt Q9NZM1) | -0.133 | 0.037
16 | NCAPH2_Q6IBW4_184_MNTCVPHPR (UniProt Q6IBW4) | -0.163 | -0.203
17 | NAPRT_Q6XQN6_254_AQVWLEQVCAHLGLGVQEPHPGER (UniProt Q6XQN6) | -0.0437 | 0.0555
18 | NAPRT_Q6XQN6_533_LQALVNSLCAGQSP (UniProt Q6XQN6) | 0.0123 | -0.0465
19 | NCBP1_Q09161_320_FVIEENLHCIIK (UniProt Q09161) | 0.0474 | 0.0657

Row | Target | probe-labelled cysteine peptide fold change (10 µM) | probe-labelled cysteine peptide fold change (50 µM)
20 | NASP_P49321_84_YGETANECGEAFFFYGK (UniProt P49321) | 0.00978 | 0.236
21 | NBEAL2_Q6ZNJ1_245_GPAPDPCLVPLALEALVGAVHVLHASR (UniProt Q6ZNJ1) | -0.00453 | -0.382
22 | NARS_O43776_342_RHLAEYTHVEAECPFLTFDDLLNR (UniProt O43776) | -0.0984 | -0.0321
23 | MYO9B_Q13459_1857_CPDNSDPLTSMK (UniProt Q13459) | 0.0154 | 0.146
24 | NCAPD2_Q15021_767_VACCPLER (UniProt Q15021) | -0.0782 | -0.475
25 | NAA25_Q14CX7_235_CMAMYK (UniProt Q14CX7) | -0.0177 | -0.119
26 | NCBP1_Q09161_261_HILRPYLAFDSILCEALQHNLPPFTPPPHTEDSVYPMPR (UniProt Q09161) | 0.042 | 0.045
27 | NBEAL2_Q6ZNJ1_142_GTQLENVALHALLLCEGLFDPYQTWR (UniProt Q6ZNJ1) | 0.171 | -0.202
28 | MYO1E_Q12965_107_ENQCVIISGESGAGK (UniProt Q12965) | -0.253 | -0.391
29 | MYO1C_O00159_802_CPENAFFLDHVR (UniProt O00159) | 0.0648 | 0.2
30 | NAXE_Q8NCW5_115_SPPTVLVICGPGNNGGDGLVCAR (UniProt Q8NCW5) | -0.249 | -0.139
31 | NAA40_Q86UY6_26_AAMDAVCAK (UniProt Q86UY6) | -0.0759 | -0.203
32 | NAPRT_Q6XQN6_484_LCLQQGQLCEPLPSLAESR (UniProt Q6XQN6) | 0.0215 | 0.0105
33 | NCAPG2_Q86XI2_285_ILEAIENDCIQDFMFHGIHLPR (UniProt Q86XI2) | -0.097 | 0.0245
34 | NCAPH2_Q6IBW4_309_EGAPEPASCVK (UniProt Q6IBW4) | 0.0125 | -0.231
35 | NAA25_Q14CX7_381_VFVDLLPATQCTK (UniProt Q14CX7) | -0.171 | 0.03
36 | NAXE_Q8NCW5_283_KYQLNLPPYPDTECVYR (UniProt Q8NCW5) | -0.147 | -0.069
37 | MYOF_Q9NZM1_1425_ASLLSAPPCR (UniProt Q9NZM1) | 0.0794 | -0.0521

Whole records from above.
MZF1_P28698_323_SEQDPTDEDPCR (UniProt P28698) as listed: probe-labelled cysteine peptide fold change (10 µM): 0.15; probe-labelled cysteine peptide fold change (50 µM): 0.0048
NCAPG2_Q86XI2_285_ILEAIENDCIQDFMFHGIHLPR (UniProt Q86XI2) as listed: probe-labelled cysteine peptide fold change (10 µM): -0.097; probe-labelled cysteine peptide fold change (50 µM): 0.0245
